For 3 molecules, binding results are on record in patent US20060019386A1.

Assay [1] concerns the target T1, Myc tagged Da (fly (Drosophila)) (UniProt P11420).
T1 sequence (looked up): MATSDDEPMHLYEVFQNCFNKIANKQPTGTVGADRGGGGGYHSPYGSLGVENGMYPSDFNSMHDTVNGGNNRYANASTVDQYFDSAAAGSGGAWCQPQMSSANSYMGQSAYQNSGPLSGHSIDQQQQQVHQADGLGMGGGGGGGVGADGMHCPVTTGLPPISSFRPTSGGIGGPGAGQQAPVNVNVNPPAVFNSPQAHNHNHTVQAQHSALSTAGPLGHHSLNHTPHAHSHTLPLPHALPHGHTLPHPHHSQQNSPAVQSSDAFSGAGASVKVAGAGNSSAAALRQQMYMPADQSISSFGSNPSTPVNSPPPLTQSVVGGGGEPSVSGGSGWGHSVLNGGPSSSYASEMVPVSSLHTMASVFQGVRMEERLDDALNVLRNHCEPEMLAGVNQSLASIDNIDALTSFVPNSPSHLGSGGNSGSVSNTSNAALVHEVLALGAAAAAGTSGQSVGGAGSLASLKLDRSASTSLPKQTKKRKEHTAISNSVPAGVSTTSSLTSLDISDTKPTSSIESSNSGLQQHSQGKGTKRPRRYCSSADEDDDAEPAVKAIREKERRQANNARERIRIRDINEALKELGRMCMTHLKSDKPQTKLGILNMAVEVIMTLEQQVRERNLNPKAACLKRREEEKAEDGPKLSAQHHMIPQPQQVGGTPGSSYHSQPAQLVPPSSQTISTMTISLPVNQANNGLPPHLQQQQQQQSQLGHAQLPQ
Put plainly: co-immunoprecipitation of 35S-labeled protein with Da-Myc using anti-Myc antibodies, SDS-PAGE autoradiography.

Assay [2] deals with T1, Myc tagged Da (fly (Drosophila)). Description: co-immunoprecipitation of 35S-labeled protein with Myc tagged Da using anti-Myc antibodies (FIG. 4, Panel A).

No constants are given. Whether binding was seen depends on the method and setting. In cells and extracts the contact can be indirect. Some entries that bind do so weakly or less than the wild type. Sequences can lack the tags named with a protein.

B1: mouse MATH1 (protein, UniProt P48985 1-351, looked up)
chain: MSRLLHAEEWAEVKELGDHHRHPQPHHVPPLTPQPPATLQARDLPVYPAELSLLDSTDPRAWLTPTLQGLCTARAAQYLLHSPELGASEAAAPRDEADSQGELVRRSGCGGLSKSPGPVKVREQLCKLKGGVVVDELGCSRQRAPSSKQVNGVQKQRRLAANARERRRMHGLNHAFDQLRNVIPSFNNDKKLSKYETLQMAQIYINALSELLQTPNVGEQPPPPTASCKNDHHHLRTASSYEGGAGASAVAGAQPAPGGGPRPTPPGPCRTRFSGPASSGGYSVQLDALHFPAFEDRALTAMMAQKDLSPSLPGGILQPVQEDNSKTSPRSHRSDGEFSPHSHYSDSDEAS
With B1, the binding result in assay [1] was “binds”.

B2: mouse NGN1 (protein, UniProt P70660 1-244, looked up)
chain: MPAPLETCISDLDCSSSNSSSDLSSFLTDEEDCARLQPLASTSGLSVPARRSAPALSGASNVPGAQDEEQERRRRRGRARVRSEALLHSLRRSRRVKANDRERNRMHNLNAALDALRSVLPSFPDDTKLTKIETLRFAYNYIWALAETLRLADQGLPGGSARERLLPPQCVPCLPGPPSPASDTESWGSGAAASPCATVASPLSDPSSPSASEDFTYGPGDPLFSFPGLPKDLLHTTPCFIPYH
For the molecule B2, the binding entry in assay [1] and in assay [2] was “binds” throughout.

B3: fly ATO (protein, fly (Drosophila), UniProt P48987 1-312, looked up)
chain: MSSSEIYRYYYKTSEDLQGFKTAAAEPYFNPMAAYNPGVTHYQFNGNTLASSSNYLSANGFISFEQASSDGWISSSPASHRSESPEYVDLNTMYNGGCNNMAQNQQYGMIMEQSVVSTAPAIPVASPPAVEVMGSSNVGTCKTIPASAGPKPKRSYTKKNQPSTTATSTPTAAAESSASVNLYTEEFQNFDFDNSALFDDSVEDDEDLMLFSGGEDFDGNDGSFDLADGENQDAAAGGSGKKRRGKQITPVVKRKRRLAANARERRRMQNLNQAFDRLRQYLPCLGNDRQLSKHETLQMAQTYISALGDLLR
With B3, in assay [1], the binding entry is “binds”.
